Measurements published in patent US20230167162A1 (TAMPERE UNIVERSITY FOUNDATION SR, published 2023).
No constants are given. Whether binding was seen depends on the method and setting. Some entries that bind do so weakly or less than the wild type. Where a sequence is shown, tags or fusion partners need not be part of it.

Target: T1, His-tagged neuropilin-1 b1b2 domain (NRP-1 WT) (UniProt O14786 273-586, limits assumed, FAM (5-(and-6)-carboxyfluorescein) label, amine-reactive dye)
T1 construct: domain: b1b2 domain; also called WT NRP-1; wild type NRP-1; not shown: His-tag
T1 sequence (looked up): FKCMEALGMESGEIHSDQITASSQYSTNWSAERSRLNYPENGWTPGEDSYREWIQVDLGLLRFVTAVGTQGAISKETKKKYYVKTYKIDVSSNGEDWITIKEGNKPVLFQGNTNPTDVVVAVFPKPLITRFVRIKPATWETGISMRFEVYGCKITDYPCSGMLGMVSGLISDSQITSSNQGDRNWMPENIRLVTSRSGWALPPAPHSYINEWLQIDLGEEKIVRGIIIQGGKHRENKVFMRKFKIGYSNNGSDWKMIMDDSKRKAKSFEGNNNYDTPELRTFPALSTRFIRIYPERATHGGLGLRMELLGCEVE
Assay: ELISA: immobilised peptide (10 µg/well), FAM-labelled NRP-1, fluorescence intensity
Experimental: In vitro binding of DCN-tCRK and peptides to NRP-1 was analyzed using ELISA analysis. 96-well, black FLUOTRAC™ 600, high binding plates (Greiner Bio-One, Kremsmünster, Austria) were coated with […] of 100 μg/ml DCN-tCRK in PBS at 4° C. overnight. 10 μg/well RPARPAR (SEQ ID NO: 25) and […] (SEQ ID NO: 26) peptides were coated in parallel as a positive and negative control, respectively. BSA was used as an immobilization control. The plates were washed 3 times with phosphate buffered saline (PBS) and blocked for 1 h at 37° C. with 300 μl of blocking solution (1×PBS, 1% BSA, 0.1% Tween-20). His-tagged neuropilin-1 b1b2 domain (NRP-1 WT) and triple mutant NS346A-E348A-T349A neuropilin-1 b1b2 domain (NRP-1 mutant) were expressed and purified at the Protein Production and Analysis Facility at the Sanford Burnham Prebys Medical Discovery Institute (La Jolla, Calif.) as described previously (Teesalu et al., 2009, PNAS 106:16157-16162). The recombinant proteins NRP1 WT, NRP1 mutant, and DCN-tCRK were FAM (5-(and-6)-Carboxyfluorescein, #90024, Biotium Inc, CA, USA) labeled by mixing 1:10 ratio of amine-reactive FAM dye (diluted in DMSO final concentration 0.2%) and protein. […] After adding 100 μl PBS in each well, the plate was immediately read with top read mode using a fluorescence reader (Flex Station II, Molecular Devices; peak excitation=485 nm, peak emission=530 nm, cut off=515).

binding: binds
B1: RPARPAR peptide (peptide)
peptide: RPARPAR
